# PubChem BioAssay AID1259254, NCATS, 2017
# Purpose: 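Gene knock-downs that lead to re-replication, shown by excess G2 DNA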 (primary screen)
# Cell system: human HCT116 colorectal cancer cells
# Reagents: single siRNA against human genes
# Duration: 3 days
# Measurement: 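Imaged Hoechst DNA stain sorts each cell into a cycle phase by DNA amount; per plate, G2 fraction set to 0% for non-targeting and 100% for GMNN siRNA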
# Scale: G2 robust z-score and G2 cells, % of GMNN control: higher = more G2 cells, more excess DNA replication; raw share of cells in G2: higher = larger share of cells with G2 DNA content
# Rule for the call: 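An siRNA counts as active if its G2 robust z-score lies at least 5 MADs above the screen median; here such calls match roughly 38% of GMNN control or more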
# Here is a random part of about 59,000 reagents tested. In the full data, about 1,550 (2.6%) are marked active. 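G2 share is only a proxy for re-replication; each gene was hit by three separate siRNAs, and active genes were retested.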 Raw values are not corrected between plates. The numbers tell different reagents against one gene apart. The record does not give: the amount of reagent.
gene,reagent no.,G2 robust z-score,"G2 cells, % of GMNN control",raw share of cells in G2 (%),call
ARFIP1,1,0.203,4.4,5.53,inactive
ARFIP1,2,3.65,28.7,15.4,inactive
ARFIP1,3,-0.674,-1.77,2.69,inactive
ATP10A,1,-0.264,1.11,4.74,inactive
ATP10A,2,-0.439,-0.124,5.59,inactive
ATP10A,3,1.26,11.8,8.51,inactive
USP17L9P,1,-0.77,-2.45,2.92,inactive
USP17L9P,2,-0.783,-2.54,2.51,inactive
USP17L9P,3,0.238,4.64,6.71,inactive
IKBKE,1,7.32,54.5,22.5,active
IKBKE,2,0.875,9.12,8.51,inactive
IKBKE,3,-0.414,0.0538,3.7,inactive
PPT2,1,1.85,16,10.2,inactive
PPT2,2,-0.555,-0.94,4.17,inactive
PPT2,3,-1.12,-4.89,3.53,inactive
SALL4,1,3.79,29.6,19.4,inactive
SALL4,2,-1.26,-5.91,1.87,inactive
SALL4,3,0.839,8.87,7.62,inactive
APBA2,1,0.419,5.92,5.81,inactive
APBA2,2,-0.233,1.33,5.47,inactive
APBA2,3,-0.651,-1.62,2.52,inactive
TNFRSF1B,1,-0.895,-3.33,4.08,inactive
TNFRSF1B,2,0.473,6.3,6.91,inactive
TNFRSF1B,3,-1.24,-5.74,2.13,inactive
VSTM1,1,-0.598,-1.24,2.89,inactive
VSTM1,2,-0.487,-0.46,3.47,inactive
VSTM1,3,3.54,27.9,13.8,inactive
HSPA9,1,8.46,62.5,28.2,active
HSPA9,2,-0.281,0.991,5.31,inactive
HSPA9,3,-0.421,0.00722,3.11,inactive

Records listed so far with an active call, once more:
gene,reagent no.,G2 robust z-score,"G2 cells, % of GMNN control",raw share of cells in G2 (%),call
IKBKE,1,7.32,54.5,22.5,active
HSPA9,1,8.46,62.5,28.2,active
